Structures can show the parent of a compound that is named as a salt. ± gives the standard deviation of the averaged measurements. The list shows a part of the results. This data set is noisy: repeats of one test often differ as much as different tests do.
System: A549
Assay: surface PD-L1 immunofluorescence intensity relative to IFN-gamma-only control (ratio); higher = more PD-L1 expression
Settings: 10 µM; exposure time 24 h; IFN-gamma 100 ng/mL

Compound | surface PD-L1 immunofluorescence intensity
O=C1CN(/N=C/c2ccc(-c3ccc([N+](=O)[O-])cc3)o2)C(=O)N1 [Dantrolene, sodium salt] | 1.04
O=C1CN(/N=C/c2ccc(-c3ccc([N+](=O)[O-])cc3)o2)C(=O)N1 [Dantrolene sodium salt] | 0.971
O=C1CN(/N=C/c2ccc(-c3ccc([N+](=O)[O-])cc3)o2)C(=O)N1 [Dantrolene] | 0.998
COc1cc(O)c2c(c1)C(=O)c1cc(C)cc(O)c1C2=O [Rheochrysidin (Physcione)] | 1.15
CCOC(=O)n1ccn(C)c1=S [Carbimazole] | 0.976
CC1(C)O[C@@H]2C[C@H]3[C@@H]4CCC5=CC(=O)C=C[C@]5(C)[C@H]4[C@@H](O)C[C@]3(C)[C@]2(C(=O)CO)O1 [Desonide] | 0.82
NCCCCCNCC12CC3CC(CC(C3)C1)C2 [IEM 1754 dihydrobroMide] | 1.04
CC[C@H]1OC(=O)C[C@@H](O)[C@H](C)[C@@H](O[C@@H]2O[C@H](C)[C@@H](O[C@H]3C[C@@](C)(O)[C@@H](O)[C@H](C)O3)[C@H](N(C)C)[C@H]2O)[C@@H](CC=O)C[C@@H](C)C(=O)/C=C/C(C)=C/[C@@H]1CO[C@@H]1O[C@H](C)[C@@H](O)[C@@H](OC)[C@H]1OC [Tylosin tartrate] | 0.92
CC[C@H]1OC(=O)C[C@@H](O)[C@H](C)[C@@H](O[C@@H]2O[C@H](C)[C@@H](O[C@H]3C[C@@](C)(O)[C@@H](O)[C@H](C)O3)[C@H](N(C)C)[C@H]2O)[C@@H](CC=O)C[C@@H](C)C(=O)/C=C/C(C)=C/[C@@H]1CO[C@@H]1O[C@H](C)[C@@H](O)[C@@H](OC)[C@H]1OC [Tylosin] | 1.02
O=C(/C=C/c1ccc(O)c(O)c1)c1ccc(O)cc1O [Butein] | 0.978 ± 0.043
CCNC(=O)CCC/C=C\C[C@@H]1[C@@H](/C=C/[C@@H](O)CCc2ccccc2)[C@H](O)C[C@@H]1O [Bimatoprost] | 1.09
Cc1ccc(NC(=O)c2cccc(N(C)C)c2)cc1NC(=O)c1ccc(O)cc1 | 1.23
C[C@]12C[C@H](O)[C@H]3[C@@H](CCC4=CC(=O)CC[C@@]43C)[C@@H]1CC[C@@H]2C(=O)CO [Corticosterone] | 0.909
Nc1c2c(nc3ccccc13)CCCC2 [Tacrine hydrochloride] | 1.09 ± 0.065
O=c1sn(-c2cccc3ccccc23)c(=O)n1Cc1ccccc1 [Tideglusib] | 0.96
O=c1cc(-c2ccccc2)oc2cc(O)cc(O)c12 [Chrysin] | 1.08
Cc1cc(OCCCS(C)(=O)=O)cc(C)c1-c1cccc(COc2ccc3c(c2)OC[C@H]3CC(=O)O)c1 | 0.996
C=C[C@@]1(C)CC(=O)[C@]2(O)[C@@]3(C)[C@@H](O)CCC(C)(C)[C@@H]3[C@H](O)[C@H](OC(C)=O)[C@@]2(C)O1 [Forskolin] | 1.03 ± 0.034
C/C(=C(\CCOP(=O)(O)O)SC(=O)c1ccccc1)N(C=O)Cc1cnc(C)nc1N [Benfotiamine] | 1.09
COc1ccc([C@@H]2CC(=O)c3c(O)cc(O[C@@H]4O[C@H](CO[C@@H]5O[C@@H](C)[C@H](O)[C@@H](O)[C@H]5O)[C@@H](O)[C@H](O)[C@H]4O)cc3O2)cc1O [Hesperidin] | 0.964 ± 0.093
NC(N)=S [Thiourea] | 0.95
O=c1cc(N2CCOCC2)oc2c(-c3cccc4c3sc3ccccc34)cccc12 | 0.981

Compound | surface PD-L1 immunofluorescence intensity
CC(C)(C(=O)O)c1ccc(C(O)CCCN2CCC(C(O)(c3ccccc3)c3ccccc3)CC2)cc1 (centres undefined) [Fexofenadine HCl] | 1.01
CC(C)(C(=O)O)c1ccc(C(O)CCCN2CCC(C(O)(c3ccccc3)c3ccccc3)CC2)cc1 (centres undefined) [Fexofenadine hydrochloride] | 1.04
CN(C)CCCN1c2ccccc2Sc2ccccc21 [Promazine hydrochloride] | 0.984
Cc1cc(C(C)(C)C)c(O)c(C)c1CC1=NCCN1 [Oxymetazoline hydrochloride] | 1.03 ± 0.026
NS(=O)(=O)c1cc(C(=O)O)cc(N2CCCC2)c1Oc1ccccc1 [Piretanide] | 1.05
O=C[C@H](O)[C@@H](O)[C@H](O)CO [Xylose] | 1.03
O=C(O)COc1ccc(OCCNC[C@H](O)COc2ccccc2)cc1 [ICI 215,001 hydrochloride] | 1.01
COC(=O)C[C@H](NC(=O)[C@H](C)NC(=O)[C@@H](NC(=O)OCc1ccccc1)C(C)C)C(=O)CF | 1.08
CC(=O)Nc1ccccc1 [Acetanilide (Antifebrin)] | 1.06
C[N+]1(C)[C@@H]2C[C@@H](OC(=O)C(O)(c3cccs3)c3cccs3)C[C@H]1[C@@H]1O[C@@H]12 [Tiotropium Bromide hydrate] | 1.01
CSc1ccc2c(c1)C(N1CCN(C)CC1)Cc1ccccc1S2 (centres undefined) [Methiothepin maleate] | 0.914 ± 0.01
CC(C(=O)O)c1ccc2c(c1)Cc1cccnc1O2 (centres undefined) [Pranoprofen] | 1.05
Cc1ccc(O)c(N=Nc2ccccc2)n1 | 1.02
Cc1c(C)c2c(c(C)c1O)CCC(C)(COc1ccc(CC3SC(=O)NC3=O)cc1)O2 (centres undefined) [Troglitazone] | 0.965 ± 0.047
C[N+]1(C)[C@@H]2CC[C@H]1C[C@@H](OC(=O)C(O)c1ccccc1)C2 (some centres undefined) [Homatropine Methylbromide] | 1.03
COC(c1ccccc1)(c1ccccc1)[C@H](Oc1nc(C)cc(C)n1)C(=O)O [Ambrisentan] | 1.1 ± 0.041
COC(=O)C1=C(C)NC(C)=C(C(=O)OCCN2CCN(C(c3ccccc3)c3ccccc3)CC2)C1c1cccc([N+](=O)[O-])c1 (centres undefined) [Manidipine (Manyper)] | 1.13
Cc1cc2c(cc1S(N)(=O)=O)S(=O)(=O)CCC2 [Meticrane] | 0.86
Clc1cnccn1 [2-Chloropyrazine] | 0.975
Nc1nc2c(ncn2[C@@H]2O[C@H](CO)[C@@H](O)[C@H]2O)c(=O)[nH]1 [Guanosine] | 1.08
NCCNCCNCCNCCN [Tetraethylenepentamine pentahydrochloride] | 0.945
CC1(C)S[C@@H]2[C@H](NC(=O)[C@H](NC(=O)N3CCNC3=O)c3ccccc3)C(=O)N2[C@H]1C(=O)O [Azlocillin sodium salt] | 1.03 ± 0.011

Reformatted comma-delimited: entries from further up.
Compound,surface PD-L1 immunofluorescence intensity
CC(=O)Nc1ccccc1 [Acetanilide (Antifebrin)],1.06
C[N+]1(C)[C@@H]2C[C@@H](OC(=O)C(O)(c3cccs3)c3cccs3)C[C@H]1[C@@H]1O[C@@H]12 [Tiotropium Bromide hydrate],1.01
